# This continues a long series; more values of the same kind are listed elsewhere.
# Tested on: terminal cancer patients
# Experiment: Phase I/II open label dose escalation study, glucose levels, 3 hour continuous infusion
# Format: in vivo, human
# Method: Cyclocreatine was tested in humans in a phase I/II open label dose escalation study. […] Cyclocreatine was administered at doses that ranged from 10 mg/Kg to 100 mg/Kg. The schedule of administration of cyclocreatine is described in Table 4.
# Cohorts of 3 patients were administered drug at each dose level, via a 3 hour continuous infusion in one liter volume of saline. The first week patients received cyclocreatine once, the second week patients received cyclocreatine twice, the third week three times, the fourth week four times, the fifth week five times. On weeks six and seven, no drug was administered to allow the drug to wash out. On week eight, cyclocreatine was given five times. The study included a total of 23 patients (18 male, 5 female) with a median age of 71 years (range 54-85). The patients had different types of malignancies. Eligibility requirements included patients who have failed standard therapy or for whom no therapy was available, normal organ function, have recovered from prior therapies, probability of survival of greater than three months. Reasons for exclusion included: major surgery, life threatening concurrent illness and CNS metastasis. Blood samples were collected at baseline and 1 day before and after the last weekly drug administration on days 1, 7, 9, 14, 17, 21, 25, 28, 33, 40, 47, 49, 54, 61, and 69. Glucose levels were determined for these collected blood samples. […] Not all patients experienced a significant drop in glucose although the trend was there. FIGS. 14 and 15 illustrate graphically individual patients' glucose levels upon treatment with 60 mg/Kg or 80 mg/Kg cyclocreatine. Patient (A) at the 80 mg/Kg dose was diabetic and had many serious complications due to their disease. […] It should be noted that an insufficient number of readings was made shortly after drug administration. It is interesting to note that several patients who were diabetic or had higher glucose levels than normal did respond to cyclocreatine, onen example being illustrated in FIG. 16.
compound,measurement,setting,value
NC1=NCCN1CC(=O)O [cyclocreatine],Glucose,"Patient 4, 20 mg/Kg, Study Day 9",79 mg/dL
same,Glucose,"Patient 4, 20 mg/Kg, Study Day 14",93 mg/dL
same,Glucose,"Patient 4, 20 mg/Kg, Study Day 17",60 mg/dL
same,Glucose,"Patient 4, 20 mg/Kg, Study Day 21",73 mg/dL
same,Glucose,"Patient 4, 20 mg/Kg, Study Day 25",98 mg/dL
same,Glucose,"Patient 4, 20 mg/Kg, Study Day 28",88 mg/dL
same,Glucose,"Patient 4, 20 mg/Kg, Study Day 33",70 mg/dL
same,Glucose,"Patient 4, 20 mg/Kg, Study Day 40",74 mg/dL
same,Glucose,"Patient 4, 20 mg/Kg, Study Day 49",88 mg/dL
same,Glucose,"Patient 4, 20 mg/Kg, Study Day 54",89 mg/dL
same,Glucose,"Patient 4, 20 mg/Kg, Study Day 61",74 mg/dL
same,Glucose,"Patient 4, 20 mg/Kg, Study Day 69",83 mg/dL
same,Glucose,"Patient 5, 20 mg/Kg, Study Day 0",117 mg/dL
same,Glucose,"Patient 5, 20 mg/Kg, Study Day 1",91 mg/dL
same,Glucose,"Patient 5, 20 mg/Kg, Study Day 7",114 mg/dL
same,Glucose,"Patient 5, 20 mg/Kg, Study Day 9",84 mg/dL
same,Glucose,"Patient 5, 20 mg/Kg, Study Day 17",89 mg/dL
same,Glucose,"Patient 5, 20 mg/Kg, Study Day 21",136 mg/dL
same,Glucose,"Patient 5, 20 mg/Kg, Study Day 25",100 mg/dL
same,Glucose,"Patient 5, 20 mg/Kg, Study Day 28",180 mg/dL
same,Glucose,"Patient 5, 20 mg/Kg, Study Day 33",89 mg/dL
same,Glucose,"Patient 5, 20 mg/Kg, Study Day 40",121 mg/dL
same,Glucose,"Patient 5, 20 mg/Kg, Study Day 49",90 mg/dL
same,Glucose,"Patient 5, 20 mg/Kg, Study Day 54",60 mg/dL
same,Glucose,"Patient 5, 20 mg/Kg, Study Day 61",102 mg/dL
same,Glucose,"Patient 5, 20 mg/Kg, Study Day 69",114 mg/dL
same,Glucose,"Patient 6, 20 mg/Kg, Study Day 0",85 mg/dL
same,Glucose,"Patient 6, 20 mg/Kg, Study Day 1",83 mg/dL
same,Glucose,"Patient 6, 20 mg/Kg, Study Day 7",141 mg/dL
same,Glucose,"Patient 7, 20 mg/Kg, Study Day 0",240 mg/dL
same,Glucose,"Patient 7, 20 mg/Kg, Study Day 1",201 mg/dL
same,Glucose,"Patient 7, 20 mg/Kg, Study Day 7",120 mg/dL
same,Glucose,"Patient 7, 20 mg/Kg, Study Day 9",161 mg/dL
same,Glucose,"Patient 7, 20 mg/Kg, Study Day 14",207 mg/dL
same,Glucose,"Patient 7, 20 mg/Kg, Study Day 17",135 mg/dL
same,Glucose,"Patient 7, 20 mg/Kg, Study Day 21",154 mg/dL
same,Glucose,"Patient 7, 20 mg/Kg, Study Day 28",172 mg/dL
same,Glucose,"Patient 7, 20 mg/Kg, Study Day 33",174 mg/dL
same,Glucose,"Patient 7, 20 mg/Kg, Study Day 40",159 mg/dL
same,Glucose,"Patient 7, 20 mg/Kg, Study Day 47",202 mg/dL
same,Glucose,"Patient 7, 20 mg/Kg, Study Day 49",201 mg/dL
same,Glucose,"Patient 7, 20 mg/Kg, Study Day 54",120 mg/dL
same,Glucose,"Patient 7, 20 mg/Kg, Study Day 61",128 mg/dL
same,Glucose,"Patient 7, 20 mg/Kg, Study Day 69",156 mg/dL
same,Glucose,"Patient 11, 60 mg/Kg, Study Day 0",118 mg/dL
same,Glucose,"Patient 11, 60 mg/Kg, Study Day 1",76 mg/dL
same,Glucose,"Patient 11, 60 mg/Kg, Study Day 9",89 mg/dL
same,Glucose,"Patient 11, 60 mg/Kg, Study Day 14",108 mg/dL
same,Glucose,"Patient 11, 60 mg/Kg, Study Day 17",92 mg/dL
same,Glucose,"Patient 11, 60 mg/Kg, Study Day 21",90 mg/dL
same,Glucose,"Patient 11, 60 mg/Kg, Study Day 25",90 mg/dL
same,Glucose,"Patient 12, 60 mg/Kg, Study Day 0",83 mg/dL
same,Glucose,"Patient 12, 60 mg/Kg, Study Day 1",89 mg/dL
same,Glucose,"Patient 12, 60 mg/Kg, Study Day 9",92 mg/dL
same,Glucose,"Patient 12, 60 mg/Kg, Study Day 14",105 mg/dL
same,Glucose,"Patient 12, 60 mg/Kg, Study Day 17",73 mg/dL
same,Glucose,"Patient 12, 60 mg/Kg, Study Day 21",138 mg/dL
same,Glucose,"Patient 12, 60 mg/Kg, Study Day 25",68 mg/dL
same,Glucose,"Patient 12, 60 mg/Kg, Study Day 28",74 mg/dL
same,Glucose,"Patient 12, 60 mg/Kg, Study Day 33",113 mg/dL
same,Glucose,"Patient 12, 60 mg/Kg, Study Day 40",83 mg/dL
same,Glucose,"Patient 12, 60 mg/Kg, Study Day 47",95 mg/dL
same,Glucose,"Patient 12, 60 mg/Kg, Study Day 49",98 mg/dL
same,Glucose,"Patient 12, 60 mg/Kg, Study Day 61",106 mg/dL
same,Glucose,"Patient 12, 60 mg/Kg, Study Day 69",112 mg/dL
same,Glucose,"Patient 13, 60 mg/Kg, Study Day 0",147 mg/dL
same,Glucose,"Patient 13, 60 mg/Kg, Study Day 1",100 mg/dL
same,Glucose,"Patient 13, 60 mg/Kg, Study Day 14",93 mg/dL
same,Glucose,"Patient 13, 60 mg/Kg, Study Day 17",92 mg/dL
same,Glucose,"Patient 13, 60 mg/Kg, Study Day 21",82 mg/dL
same,Glucose,"Patient 13, 60 mg/Kg, Study Day 25",75 mg/dL
same,Glucose,"Patient 13, 60 mg/Kg, Study Day 28",56 mg/dL
same,Glucose,"Patient 13, 60 mg/Kg, Study Day 33",85 mg/dL
same,Glucose,"Patient 13, 60 mg/Kg, Study Day 40",67 mg/dL
same,Glucose,"Patient 13, 60 mg/Kg, Study Day 47",142 mg/dL
same,Glucose,"Patient 13, 60 mg/Kg, Study Day 49",106 mg/dL
same,Glucose,"Patient 13, 60 mg/Kg, Study Day 54",72 mg/dL
same,Glucose,"Patient 13, 60 mg/Kg, Study Day 61",64 mg/dL
same,Glucose,"Patient 13, 60 mg/Kg, Study Day 69",141 mg/dL
same,Glucose,"Patient 14, 80 mg/Kg, Study Day 0",172 mg/dL
same,Glucose,"Patient 14, 80 mg/Kg, Study Day 1",33 mg/dL
same,Glucose,"Patient 14, 80 mg/Kg, Study Day 7",243 mg/dL
same,Glucose,"Patient 14, 80 mg/Kg, Study Day 9",378 mg/dL
same,Glucose,"Patient 14, 80 mg/Kg, Study Day 14",198 mg/dL
same,Glucose,"Patient 14, 80 mg/Kg, Study Day 17",291 mg/dL
same,Glucose,"Patient 14, 80 mg/Kg, Study Day 21",271 mg/dL
same,Glucose,"Patient 14, 80 mg/Kg, Study Day 25",352 mg/dL
same,Glucose,"Patient 14, 80 mg/Kg, Study Day 28",364 mg/dL
same,Glucose,"Patient 14, 80 mg/Kg, Study Day 33",345 mg/dL
same,Glucose,"Patient 14, 80 mg/Kg, Study Day 40",175 mg/dL
same,Glucose,"Patient 14, 80 mg/Kg, Study Day 49",280 mg/dL
same,Glucose,"Patient 14, 80 mg/Kg, Study Day 54",416 mg/dL
same,Glucose,"Patient 15, 80 mg/Kg, Study Day 0",100 mg/dL
same,Glucose,"Patient 15, 80 mg/Kg, Study Day 1",85 mg/dL
same,Glucose,"Patient 15, 80 mg/Kg, Study Day 7",93 mg/dL
same,Glucose,"Patient 15, 80 mg/Kg, Study Day 9",65 mg/dL
same,Glucose,"Patient 15, 80 mg/Kg, Study Day 14",88 mg/dL

# Source: patent US20050256134A1, “Use of creatine analogues and creatine kinase modulators for the prevention and treatment of glucose metabolic disorders” (AVICENA GROUP, INC., priority 1995, published 2005)
